Test results taken from patent US20240115488A1, “COMPOSITION FOR ORAL CAVITY CARE” (ICHIMARU PHARCOS CO., LTD., priority 2021, published 2024).

Tested on: oral bacteria culture medium
Test: Confirmation of halitosis suppression effect: measurement of VSC concentration with halimeter (Test Example 3)
Type: cell-based, human
Settings: 0.05% CPC
Experimental: Using Vivaspin 20 (manufactured by Sartorius) of a fractionated molecular weight of 5 k, ML with 5000 or more was prepared.
Three fractions including ML with 5000 or more and less than 30000, ML with 30000 or more and less than 50000, and ML with 50000 or more were obtained.
A predetermined CPC solution was prepared as follows. 0.2 g of CPC was dissolved in 10 mL of ethanol solution to prepare a stock solution (2% CPC). This stock solution was diluted 20-fold with purified water to prepare a 0.1% CPC (5% ethanol) solution. This solution was further diluted with a 5% ethanol solution to prepare 0.05% CPC (5% ethanol), 0.025% CPC (5% ethanol), and 0.0125% CPC (5% ethanol).
Saliva (approximately 2 mL) of a healthy human in his 30 s was collected by a predetermined method. The collected saliva was centrifuged (2000×g, 10 minutes, 25° C. (room temperature)). After the centrifugation, the supernatant was collected. The supernatant was added to 30 mL of Todd Hewitt Broth (Becton, Dickinson and Company, 249240), and cultured at 37° C. for 16 hours. The turbidity (OD660 nm) of the culture medium after the culture was measured, and the culture medium was diluted with PBS to have a turbidity of 0.125. The diluted liquid (oral bacteria culture medium) was used in a test.
Halitosis is defined as “malodor that exceeds a socially acceptable limit among gases that come out of the mouth or the nose”. Most (80% or more) of the halitosis is considered to be from gas in the oral cavity, and main causative substances thereof are considered to be hydrogen sulfide (H2S), methyl mercaptan (CH3SH), and dimethyl sulfide [(CH3)2S], which are volatile sulfur compounds (VSCs) (Cause and fact of halitosis, e-healthnet, Ministry of Health, Labour and Welfare, URL: https://www.e-healthnet.mhlw.go.jp/information/teeth/h-07-001.html). […]
After the standing, the VSC concentration in each group was measured three times with a halimeter (RH17K, TAIYO), and an average value thereof was calculated. The average value of the results (numerical values) obtained was calculated.

## CCCCCCCCCCCCCCCC[n+]1ccccc1 [CPC, cetylpyridinium chloride]
Test 3-1, 3-1 Control group = 100
  VSC concentration, calculation result (relative value): 59.1
Test 3-2, 3-2 Control group = 100
  VSC concentration, calculation result (relative value): 59.1
Test 3-3, 3-3 Control group = 100
  VSC concentration, calculation result (relative value): 91
